PMC9774693
These are yes or no findings as the source states them, for the method shown. Binding seen in cells or lysates may run through a third protein. These calls come from enrichment with a bait or labelling near it, and not all partners need be listed.

Sequences of proteins named here, by UniProt entry; tags and fusion partners are left off. Residues count along the entry.
UniProt Q96EB6: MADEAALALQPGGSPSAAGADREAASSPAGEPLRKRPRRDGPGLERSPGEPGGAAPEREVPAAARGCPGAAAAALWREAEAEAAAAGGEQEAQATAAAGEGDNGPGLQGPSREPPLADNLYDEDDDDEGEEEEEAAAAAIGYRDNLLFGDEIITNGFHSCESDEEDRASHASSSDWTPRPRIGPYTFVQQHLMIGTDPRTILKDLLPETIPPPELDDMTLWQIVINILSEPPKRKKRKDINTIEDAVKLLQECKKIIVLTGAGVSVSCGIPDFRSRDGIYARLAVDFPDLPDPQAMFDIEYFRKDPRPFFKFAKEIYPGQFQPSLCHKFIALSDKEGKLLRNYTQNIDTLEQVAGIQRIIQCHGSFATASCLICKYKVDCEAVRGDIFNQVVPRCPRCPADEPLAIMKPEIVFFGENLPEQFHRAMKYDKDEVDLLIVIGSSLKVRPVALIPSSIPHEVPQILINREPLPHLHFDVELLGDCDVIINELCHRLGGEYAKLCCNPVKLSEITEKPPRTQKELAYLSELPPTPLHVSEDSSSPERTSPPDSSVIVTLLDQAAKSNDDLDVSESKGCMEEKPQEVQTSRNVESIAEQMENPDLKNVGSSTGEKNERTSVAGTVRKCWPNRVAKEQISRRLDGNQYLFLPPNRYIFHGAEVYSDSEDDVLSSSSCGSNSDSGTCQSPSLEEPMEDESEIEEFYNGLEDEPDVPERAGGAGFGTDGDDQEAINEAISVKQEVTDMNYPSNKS
UniProt Q8N5F7: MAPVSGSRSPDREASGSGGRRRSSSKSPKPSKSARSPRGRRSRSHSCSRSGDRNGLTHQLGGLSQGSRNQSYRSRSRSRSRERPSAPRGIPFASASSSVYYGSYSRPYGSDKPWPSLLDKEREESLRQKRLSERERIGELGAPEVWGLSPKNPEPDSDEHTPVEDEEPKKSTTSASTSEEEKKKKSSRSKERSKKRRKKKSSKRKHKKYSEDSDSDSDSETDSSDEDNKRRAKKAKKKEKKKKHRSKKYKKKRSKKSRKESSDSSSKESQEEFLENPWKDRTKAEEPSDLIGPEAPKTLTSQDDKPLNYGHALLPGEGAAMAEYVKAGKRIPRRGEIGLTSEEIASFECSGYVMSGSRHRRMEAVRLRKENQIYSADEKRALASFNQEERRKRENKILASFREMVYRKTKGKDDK
UniProt P08238: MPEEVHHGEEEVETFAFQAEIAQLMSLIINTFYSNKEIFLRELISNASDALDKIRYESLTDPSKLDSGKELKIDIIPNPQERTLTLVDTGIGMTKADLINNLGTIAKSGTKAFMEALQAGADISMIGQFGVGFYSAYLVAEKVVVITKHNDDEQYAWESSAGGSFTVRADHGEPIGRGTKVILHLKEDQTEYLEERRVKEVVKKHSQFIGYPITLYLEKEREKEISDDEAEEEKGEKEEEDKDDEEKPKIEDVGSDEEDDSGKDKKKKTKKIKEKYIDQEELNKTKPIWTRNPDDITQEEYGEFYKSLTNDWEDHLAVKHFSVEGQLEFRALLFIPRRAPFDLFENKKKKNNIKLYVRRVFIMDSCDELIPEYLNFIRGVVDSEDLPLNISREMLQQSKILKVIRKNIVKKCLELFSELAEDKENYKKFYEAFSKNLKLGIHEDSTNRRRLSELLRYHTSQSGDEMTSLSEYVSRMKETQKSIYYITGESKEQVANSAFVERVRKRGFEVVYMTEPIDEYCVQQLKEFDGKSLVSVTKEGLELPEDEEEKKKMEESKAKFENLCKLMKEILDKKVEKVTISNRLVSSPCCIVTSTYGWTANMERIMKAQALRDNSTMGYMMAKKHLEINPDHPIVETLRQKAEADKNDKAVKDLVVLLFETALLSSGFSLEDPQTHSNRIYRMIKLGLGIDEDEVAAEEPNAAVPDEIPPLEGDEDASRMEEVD
UniProt P11021, residues 19-654: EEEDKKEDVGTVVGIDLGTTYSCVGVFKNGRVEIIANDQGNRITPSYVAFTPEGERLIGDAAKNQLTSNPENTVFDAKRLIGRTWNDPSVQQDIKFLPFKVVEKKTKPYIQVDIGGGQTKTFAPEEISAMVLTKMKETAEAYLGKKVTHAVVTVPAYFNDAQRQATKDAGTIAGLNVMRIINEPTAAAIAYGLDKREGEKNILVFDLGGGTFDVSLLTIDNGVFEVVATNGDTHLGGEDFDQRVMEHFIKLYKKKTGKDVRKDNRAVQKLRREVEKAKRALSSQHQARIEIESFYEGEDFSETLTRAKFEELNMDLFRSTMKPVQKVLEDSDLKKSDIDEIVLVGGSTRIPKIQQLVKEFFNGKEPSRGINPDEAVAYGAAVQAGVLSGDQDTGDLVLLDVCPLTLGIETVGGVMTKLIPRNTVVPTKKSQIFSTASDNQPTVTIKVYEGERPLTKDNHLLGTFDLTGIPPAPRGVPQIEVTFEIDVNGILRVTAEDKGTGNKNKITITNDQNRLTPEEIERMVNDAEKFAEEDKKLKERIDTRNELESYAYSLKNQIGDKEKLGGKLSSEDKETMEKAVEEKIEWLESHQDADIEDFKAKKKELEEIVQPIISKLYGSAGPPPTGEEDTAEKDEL
UniProt P67809: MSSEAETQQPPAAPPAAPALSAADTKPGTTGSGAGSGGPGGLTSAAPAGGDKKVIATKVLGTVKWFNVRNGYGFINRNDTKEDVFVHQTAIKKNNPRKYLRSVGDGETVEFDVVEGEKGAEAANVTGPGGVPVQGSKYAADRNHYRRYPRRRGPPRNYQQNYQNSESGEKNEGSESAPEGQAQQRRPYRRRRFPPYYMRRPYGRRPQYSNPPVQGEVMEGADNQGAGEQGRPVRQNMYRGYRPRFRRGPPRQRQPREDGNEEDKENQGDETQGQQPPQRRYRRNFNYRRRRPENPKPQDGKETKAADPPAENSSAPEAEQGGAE

B1: SLC25A6 (protein, UniProt P12236 1-298)
chain: MTEQAISFAKDFLAGGIAAAISKTAVAPIERVKLLLQVQHASKQIAADKQYKGIVDCIVRIPKEQGVLSFWRGNLANVIRYFPTQALNFAFKDKYKQIFLGGVDKHTQFWRYFAGNLASGGAAGATSLCFVYPLDFARTRLAADVGKSGTEREFRGLGDCLVKITKSDGIRGLYQGFSVSVQGIIIYRAAYFGVYDTAKGMLPDPKNTHIVVSWMIAQTVTAVAGVVSYPFDTVRRRMMMQSGRKGADIMYTGTVDCWRKIFRDEGGKAFFKGAWSNVLRGMGGAFVLVLYDELKKVI

molecular target: SIRT1-APEX2 fusion protein (UniProt Q96EB6); assay: proximity labelling; APEX2: SIRT1-APEX2 in HEK 293T cells; 500 uM biotin-phenol with or without 20 uM resveratrol for 30 min at 37 C, 1 mM H2O2 for 1 min; RIPA lysate, streptavidin magnetic beads, on-bead trypsin digestion, LC-MS/MS, label-free quantitation

binding, binds:
NF-kappa-B-activating protein (from UniProt Q8N5F7 1-415)
heat shock protein 90 kDa alpha (cytosolic) class B member 1 (HSP90AB1) (from UniProt P08238 1-724)
HSPA5 (from UniProt P11021 19-654)
Ras-GTPase-activating protein SH3 domain-binding protein 1 (G3BP1) (from UniProt Q13283-1 1-466)
Y box binding protein 1 (YBX1) (from UniProt P67809 1-324)

molecular target: SIRT1-APEX2 fusion protein (UniProt Q96EB6); assay: as above; remark: another data set of the same source

binding, binds:
B1
